Our source for the binding values is patent EP1452589A1.

Chains of the proteins cited; added tags and fusions are not shown.
UniProt P61586: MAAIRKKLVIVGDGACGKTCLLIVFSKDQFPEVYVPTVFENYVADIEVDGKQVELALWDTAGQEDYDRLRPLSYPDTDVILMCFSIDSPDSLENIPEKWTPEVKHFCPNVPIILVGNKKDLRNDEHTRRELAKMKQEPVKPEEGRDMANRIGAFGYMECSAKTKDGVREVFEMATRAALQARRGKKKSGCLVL

Positions count from the first letter of the chain named. Names and notes keep the numbering of the source. No constants are given. Whether binding was seen depends on the method and setting. Some entries that bind do so weakly or less than the wild type.

The labels stand for the following.
B1: ADP-ribosyltransferase C3cer wild type (enzyme)
chain: GNIPTKPKDCNNVDKYKLCTNKEEADAWGKKQFNKWSKEEKSAIRDYTKNARPYNEFLRMHAGKLDSDPTMKKKIESLDKALNRKEAKVNDNIKVYRGDDAWIFGKEYDNSIIKNGKVDREKFKEIQKKFQGKTTTEFGYISTSILIDAGYAKTRPVMTEFKVGSGTHGAYMNSDDLTAYPGQYELLLPRNTVYKIEKIYIAIDNNTQKEQIKVEATIK
B2: C3cer E185Q (enzyme)
chain: B1 chain with E185Q
B3: C3cer T151V (enzyme)
chain: B1 chain with Y151V
B4: C3cer R155E (enzyme)
chain: B1 chain with R155E
B5: C3cer R97K (enzyme)
chain: B1 chain with R97K
B6: C3cer Q183E (enzyme)
chain: B1 chain with Q183E
B7: C3cer R59K/R97K (enzyme)
chain: B1 chain with R59K, R97K
B8: C3cer R59K (enzyme)
chain: B1 chain with R59K
B9: C3cer T178A (enzyme)
chain: B1 chain with T178A

The target in this experiment is Wild type RhoA expressed as recombinant glutathione S-transferase fusion protein (UniProt P61586). Description: precipitation with GST-RhoA on glutathione Sepharose beads, Western blot (+: normal binding to RhoA).
Regarding B1, the binding result is “binds”.

In the case of B2, the binding entry is recorded as “binds”. Take B3: the binding result is “binds”. With B4, the binding result is “binds”. Consider B5, for which the binding result is reported as “binds”. Turning to B6, the binding result is listed as “binds”. B7: the binding entry is given as “binds”.

As to B8, the binding result is recorded as “binds”. In the case of B9, the binding result is reported as “binds”.
